Data on 18 molecules can be found in PubChem BioAssay AID192 (DTP/NCI, 2004).

The list shows only some results of the screen, not a fair sample: it is rich in T/C values a quarter to a half above the control, in often repeated tests (any T/C) and in doses without a T/C. Other doses and runs of a compound stand elsewhere. T/C is the treated group as % of the vehicle group. Some entries give survivors of the animals treated and no T/C: the source files T/C as zero there, which appears to mark a toxic dose or a test without result, not a measured value. Some doses without a T/C left all or most animals alive at the check, yet need not have been tolerated: survival well below the control is almost never listed, so the zero probably covers shortened survival too. Survivors were counted at the toxicity check, usually on the fifth day, unless a day is given; later deaths do not show. Schedules are NCI's codes, read here as Q, the interval in days (D) or hours (H), X, the number of doses. For survival time, this PubChem deposit counts one and a half times the control or more as active, and values a quarter to a half above the control carry no call in these data; other NCI protocols may use other cut-offs. Some doses were run more than once; the results are listed from low to high. Some T/C values carry the count of animals alive at the toxicity check (mostly the fifth day); where none is given, no animal had died by that day. Numbered stars: 1 amine (or outer) side, 2 acyl side, 3 side chain; on linkers, the order of the positions; unused ones are H or OH. Bridge positions count the residues as written; N and C are the ends. Square brackets hold non-standard residues; d marks the D form. Peptide text beside a SMILES is read from it. I, II: the chains in the order shown. Actinocin(1to9) = Cc1c2oc3c(C)ccc(C(=O)[*:2])c3nc-2c(C(=O)[*:1])c(N)c1=O; Hyp = O=C(O)[CH]1C[CH](O)CN1; NMeV = CN[CH](C(=O)O)C(C)C; Sar = CNCC(=O)O

This assay has as its system BDF1 mice, B16 melanoma ip, median survival T/C. Briefly: NCI In Vivo Anticancer Drug Screen. Data for tumor model B16 Melanoma (intraperitoneal) in B6D2F1 (BDF1) mice. To be noted: T/C endpoint: median survival time, higher T/C = longer survival. In outline: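 Values are ratios of treated (T) to vehicle-control (C) measurements of survival or tumor size in tumor-bearing mice.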

[1] abbreviates: dose: 100.0 mg/kg/injection, schedule: Q04DX003 (ip), vehicle: saline.
The mark [2] stands for this setting: dose: 200.0 mg/kg/injection, schedule: Q04DX003 (ip), vehicle: saline.
[3] abbreviates: dose: 400.0 mg/kg/injection, schedule: Q04DX003 (ip), vehicle: saline.
[4] abbreviates: dose: 200.0 mg/kg/injection, schedule: Q01DX009 (ip), vehicle: saline with Tween-80.
The mark [5] stands for this setting: dose: 100.0 mg/kg/injection, schedule: Q01DX009 (ip), vehicle: Klucel (hydroxypropylcellulose) (HPC).
Setting [6] is: dose: 200.0 mg/kg/injection, schedule: Q01DX009 (ip), vehicle: Klucel (hydroxypropylcellulose) (HPC).
The mark [7] stands for this setting: dose: 50.0 mg/kg/injection, schedule: Q01DX009 (ip), vehicle: saline with Tween-80.
Where [8] appears, read: dose: 100.0 mg/kg/injection, schedule: Q01DX009 (ip), vehicle: saline with Tween-80.

As to `CC1(C)N=C(N)N=C(N)N1c1cccc(Cl)c1`, the T/C (dose: 40.0 mg/kg/injection, schedule: Q04DX003 (ip), vehicle: saline) is 130 % of control and the T/C (dose: 80.0 mg/kg/injection, schedule: Q04DX003 (ip), vehicle: saline) is 132 % of control [9 of 10 alive].

Consider `O=C(CCN1CC1)Nc1ccc(NC(=O)CCN2CC2)cc1`, for which the T/C (dose: 2.5 mg/kg/injection, schedule: Q04DX003 (ip), vehicle: Klucel (hydroxypropylcellulose) (HPC)) was 139 % of control. Moreover, the survivor count (dose: 40.0 mg/kg/injection, schedule: Q04DX003 (ip), vehicle: Klucel (hydroxypropylcellulose) (HPC)) is listed as 10 of 10.

As to `CCCC1CC[N-]CC1.CCCC1CC[N-]CC1.[Br][Pt+2]([Br])([Br])[Br]`, the survivor count is given as 10 of 10 (dose: 25.0 mg/kg/injection, schedule: Q01DX009 (ip), vehicle: water) and 9 of 10 (dose: 50.0 mg/kg/injection, schedule: Q01DX009 (ip), vehicle: water).

As for `N#CC(Br)(Br)C(N)=O`, the survivor count runs as follows: (dose: 2.5 mg/kg/injection, schedule: Q01DX009 (ip), vehicle: saline) 10 of 10; (dose: 5.0 mg/kg/injection, schedule: Q01DX009 (ip), vehicle: saline) 10 of 10; (dose: 10.0 mg/kg/injection, schedule: Q01DX009 (ip), vehicle: saline) 9 of 10; (dose: 20.0 mg/kg/injection, schedule: Q01DX009 (ip), vehicle: saline) 0 of 10.

With `Cc1c2oc3c(C)ccc(C(=O)NC4C(=O)NC(C(C)C)C(=O)N5CCCC5C(=O)N(C)CC(=O)N(C)C(C(C)C)C(=O)OC4C)c3nc-2c(C(=O)NC2C(=O)NC(C(C)C)C(=O)N3CC(O)CC3C(=O)N(C)CC(=O)N(C)C(C(C)C)C(=O)OC2C)c(N)c1=O` (stereo unspecified) (I: TV[Hyp][Sar][NMeV] / II: TVP[Sar][NMeV]; ester I:1-I:C, II:1-II:C; linker I:N-II:N via Actinocin(1to9); configuration not given here), the T/C was 133 % of control (dose: 75.0 micrograms/kg/injection, schedule: Q01DX009 (ip), vehicle: saline + alcohol); 142 % of control (dose: 225.0 micrograms/kg/injection, schedule: Q04DX003 (ip), vehicle: saline + alcohol); 137 and 147 % of control (dose: 300.0 micrograms/kg/injection, schedule: Q04DX003 (ip), vehicle: saline + alcohol); 141 % of control (dose: 450.0 micrograms/kg/injection, schedule: Q04DX003 (ip), vehicle: saline + alcohol). The survivor count was 8 of 8 (dose: 200.0 micrograms/kg/injection, schedule: Q01DX009 (ip), vehicle: saline + alcohol); 8 of 8 (dose: 300.0 micrograms/kg/injection, schedule: Q01DX009 (ip), vehicle: saline + alcohol); 8 of 8 (dose: 600.0 micrograms/kg/injection, schedule: Q04DX003 (ip), vehicle: saline + alcohol); 8 of 8 (dose: 900.0 micrograms/kg/injection, schedule: Q04DX003 (ip), vehicle: saline + alcohol).

Consider `C1=CCOCOC1`, for which the survivor count runs as follows: under setting [1], 6 of 10; under setting [2], 0 of 10; under setting [3], 0 of 10.

For the molecule `N#CC1CS(=O)(=O)C1`, the survivor count by setting is: (dose: 200.0 mg/kg/injection, schedule: Q04DX003 (ip), vehicle: saline with Tween-80) 4 of 10; (dose: 400.0 mg/kg/injection, schedule: Q04DX003 (ip), vehicle: saline with Tween-80) 5 of 10.

For the molecule `C/C=C/C=C1/OC(C)=C(C(C)=O)C1=O`, the survivor count is 4 of 9 under setting [4] and 0 of 10 (dose: 400.0 mg/kg/injection, schedule: Q01DX009 (ip), vehicle: saline with Tween-80).

For the molecule `CC(=O)OC1C(O)C(C)OC(OC2C(OC(=O)C3CCC4C(C3)OC3(CC(OC(=O)/C=C/c5ccccc5)C(C)CO3)C43CO3)OC(C)C(O)C2OC(C)=O)C1O` (stereo unspecified), the T/C (dose: 2.0 mg/kg/injection, schedule: Q01DX009 (ip), vehicle: saline + alcohol) was 125 and 138 % of control; the T/C (dose: 4.0 mg/kg/injection, schedule: Q01DX009 (ip), vehicle: saline + alcohol) is 142 [9 of 10 alive] and 143 % of control.

Take `CNC(=O)ON(C(C)=O)C(=O)NC`: the survivor count is listed as 8 of 10 (dose: 50.0 mg/kg/injection, schedule: Q01DX009 (ip), vehicle: saline); 1 of 10 (dose: 100.0 mg/kg/injection, schedule: Q01DX009 (ip), vehicle: saline); 0 of 10 (dose: 200.0 mg/kg/injection, schedule: Q01DX009 (ip), vehicle: saline); 0 of 10 (dose: 400.0 mg/kg/injection, schedule: Q01DX009 (ip), vehicle: saline).

Regarding `NNC(=O)c1ccc(Cl)cc1Nc1ccc(F)cc1`, the survivor count is recorded as 9 of 10 under setting [1], 0 of 10 under setting [2] and 0 of 10 under setting [3].

With `CC(C)(CO)C(O)C(=O)NNCc1ccccc1` (stereo unspecified), the survivor count (dose: 100.0 mg/kg/injection, schedule: Q04DX003 (ip), vehicle: Klucel (hydroxypropylcellulose) (HPC)) was 10 of 10.

Consider `O=C1C=CC(=O)N1c1ccc2c(c1)oc(=O)c1ccccc12`, for which the survivor count under setting [5] is 10 of 10 and the survivor count under setting [6] is 9 of 10.

Take `O=C1c2c(O)cccc2-c2nn(CCNCCO)c3ccc(NCCNCCO)c1c23`: the survivor count (dose: 11.0 mg/kg/injection, schedule: Q01DX009 (ip), vehicle: water) is listed as 9 of 10; the survivor count (dose: 22.0 mg/kg/injection, schedule: Q01DX009 (ip), vehicle: water) is 10 of 10; the survivor count (dose: 44.0 mg/kg/injection, schedule: Q01DX009 (ip), vehicle: water) is recorded as 8 of 10.

Turning to `CCCCCC#CC(=O)OC`, the survivor count runs as follows: under setting [7], 9 of 10; under setting [8], 10 of 10; under setting [4], 10 of 10.

Regarding `Cc1ccc(NC(=O)N(CCCl)N=O)cc1C`, the survivor count is, setting by setting: (dose: 12.5 mg/kg/injection, schedule: Q01DX009 (ip), vehicle: Klucel (hydroxypropylcellulose) (HPC)) 10 of 10; (dose: 25.0 mg/kg/injection, schedule: Q01DX009 (ip), vehicle: Klucel (hydroxypropylcellulose) (HPC)) 10 of 10; (dose: 50.0 mg/kg/injection, schedule: Q01DX009 (ip), vehicle: Klucel (hydroxypropylcellulose) (HPC)) 9 of 10.

`O=C(O)c1cccc([N+](=O)[O-])c1O`: the survivor count reads like this: under setting [5], 10 of 10; under setting [6], 10 of 10; (dose: 400.0 mg/kg/injection, schedule: Q01DX009 (ip), vehicle: Klucel (hydroxypropylcellulose) (HPC)) 4 of 10.

Regarding `CC1=CC2=C(C=O)C(=O)[C@](C)(O)[C@@H](O)C2=CO1`, the survivor count by setting is: under setting [7], 10 of 10; under setting [8], 3 of 10.
